Patent publication US7919091B2, “Lipolysis stimulated receptor (LSR) specific antibodies” (Serono Genetics Institute S.A., priority 1997, dated 2011)
At least one compound was matched to its structure with a doubt left.

Tests used:
LSR 56 = target: T1, LSR 56 (Rattus norvegicus, UniProt Q9WU74); assay: Binding of LDLs onto LSR proteins expressed in vitro (flotation); details: 1 mM oleate, 100 μg/ml LDL, in vitro translated protein
T1 construct: two complete cDNAs encoding the longest (66 kDa, lane 2) and the shortest (58 kDa, lane 3) forms of rat LSR; made in house; host or cells: cell-free transcription/translation (Promega TNT kit) from pcDNA3, 35S-labelled
T1 sequence (Q9WU74 36-525 isoform Q9WU74-3): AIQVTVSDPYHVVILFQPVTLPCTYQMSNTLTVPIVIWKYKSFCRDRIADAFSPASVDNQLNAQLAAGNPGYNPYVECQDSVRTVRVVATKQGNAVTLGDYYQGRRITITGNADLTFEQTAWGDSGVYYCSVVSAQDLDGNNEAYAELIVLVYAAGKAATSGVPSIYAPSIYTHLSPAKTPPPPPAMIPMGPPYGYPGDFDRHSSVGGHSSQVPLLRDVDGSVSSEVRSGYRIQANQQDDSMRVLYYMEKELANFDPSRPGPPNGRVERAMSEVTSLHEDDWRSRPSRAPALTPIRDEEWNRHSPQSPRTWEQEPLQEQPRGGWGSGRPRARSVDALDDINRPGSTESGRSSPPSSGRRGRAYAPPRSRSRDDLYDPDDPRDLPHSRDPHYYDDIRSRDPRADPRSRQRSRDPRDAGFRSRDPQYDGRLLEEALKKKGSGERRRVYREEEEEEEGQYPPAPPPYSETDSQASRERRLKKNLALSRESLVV

LSR 68 = target: T2, LSR 68 (Rattus norvegicus, UniProt Q9WU74); assay: as above; details: 1 mM oleate, 100 μg/ml LDL, in vitro translated protein
T2 construct: two complete cDNAs encoding the longest (66 kDa, lane 2) and the shortest (58 kDa, lane 3) forms of rat LSR; made in house; host or cells: cell-free transcription/translation (Promega TNT kit) from pcDNA3, 35S-labelled
T2 sequence (Q9WU74 36-593): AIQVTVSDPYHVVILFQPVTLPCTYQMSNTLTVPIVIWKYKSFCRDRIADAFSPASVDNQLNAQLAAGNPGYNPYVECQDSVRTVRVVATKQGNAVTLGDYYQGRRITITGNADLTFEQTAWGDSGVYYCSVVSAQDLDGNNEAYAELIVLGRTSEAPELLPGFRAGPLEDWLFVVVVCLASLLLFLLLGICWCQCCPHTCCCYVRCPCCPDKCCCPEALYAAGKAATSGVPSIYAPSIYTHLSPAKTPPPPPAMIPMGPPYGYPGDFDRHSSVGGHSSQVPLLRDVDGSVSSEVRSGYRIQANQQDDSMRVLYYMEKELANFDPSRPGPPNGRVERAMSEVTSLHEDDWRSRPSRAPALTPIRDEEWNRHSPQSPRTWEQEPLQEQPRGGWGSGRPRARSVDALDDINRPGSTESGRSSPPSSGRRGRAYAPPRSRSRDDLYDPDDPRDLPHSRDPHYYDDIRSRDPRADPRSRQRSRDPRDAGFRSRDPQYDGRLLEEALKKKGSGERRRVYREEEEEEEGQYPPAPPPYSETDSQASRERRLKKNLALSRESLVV

LSR = details: human fibroblasts with LDL receptor gene deletion, with and without oleate; cited from earlier work

Q: What does the source list for `CCCCCCCC/C=C\CCCCCCCC(=O)O` [oleate]?
A: factor of increase of binding of LDL to LSR 56 (LSR 56): 2; factor of increase of binding of LDL to LSR 68 (LSR 68): 5; LDL binding, internalization and degradation activity (LSR): induces
